Laboratory results: PubChem BioAssay AID1508597 (Cure First, 2020)
This is an unselected part of the about 2,100 reagents, in one setting of the screen. 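Calls flag viability under 80% in either arm, not effects specific to rucaparib; the reference for percent is not stated.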 A reagent listed more than once was tested more than once; the source does not tell the runs apart. Reagent sequences are not shown. Not stated in the record: the 100% reference.

Screen: 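Survival screen with siRNA in ovarian cancer cells derived from patients, with or without rucaparib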 (primary screen)
System: human ovarian carcinoma lines grown from tumours: OCI-P5x (papillary serous) and OCI-C5x (clear cell)
Knock-down reagent: siRNA pool against human genes, 1.25 pmol siRNA per well
Time to read-out: 72 h or 96 h, depending on the cell culture
Challenge: rucaparib 20 µM (about IC30) or vehicle, present until read-out
Rucaparib or vehicle: Rucaparib
Cell line: OCI-C5x (clear cell)
Read-out: 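Luminescent ATP-based viability assay read 72 or 96 h after transfection, depending on culture, given as normalised percent viability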
Scale: viability, normalised: higher = more viable cells remaining
Active means: 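Active when normalised viability falls below 80 percent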
Calls: active = viability under 80%; inactive = viability 80% or more

| gene | technical replicate | viability, normalised (%) | Outcome |
| --- | --- | --- | --- |
| PLCZ1 (phospholipase C zeta 1) | 1 | 72.7 | active |
| PLCZ1 (phospholipase C zeta 1) | 2 | 59.2 | active |
| PLCZ1 (phospholipase C zeta 1) | 3 | 47.1 | active |
| UBE2I (ubiquitin conjugating enzyme E2 I) | 1 | 47 | active |
| UBE2I (ubiquitin conjugating enzyme E2 I) | 1 | 51.1 | active |
| UBE2I (ubiquitin conjugating enzyme E2 I) | 2 | 41 | active |
| UBE2I (ubiquitin conjugating enzyme E2 I) | 2 | 46.6 | active |
| UBE2I (ubiquitin conjugating enzyme E2 I) | 3 | 50.6 | active |
| UBE2I (ubiquitin conjugating enzyme E2 I) | 3 | 59.3 | active |
| DIDO1 (death inducer-obliterator 1) | 1 | 32.3 | active |
| DIDO1 (death inducer-obliterator 1) | 2 | 31.9 | active |
| DIDO1 (death inducer-obliterator 1) | 3 | 29.7 | active |
| DUSP1 (dual specificity phosphatase 1) | 1 | 37.2 | active |
| DUSP1 (dual specificity phosphatase 1) | 2 | 31 | active |
| DUSP1 (dual specificity phosphatase 1) | 3 | 47.5 | active |
| USP3 (ubiquitin specific peptidase 3) | 1 | 50 | active |
| USP3 (ubiquitin specific peptidase 3) | 2 | 58.5 | active |
| USP3 (ubiquitin specific peptidase 3) | 3 | 51.8 | active |
| TOP3B (DNA topoisomerase III beta) | 1 | 61.5 | active |
| TOP3B (DNA topoisomerase III beta) | 2 | 81.3 | inactive |
| TOP3B (DNA topoisomerase III beta) | 3 | 72 | active |
| CASP7 (caspase 7) | 1 | 59.5 | active |
| CASP7 (caspase 7) | 2 | 49.5 | active |
| CASP7 (caspase 7) | 3 | 51.9 | active |
| SOX21 (SRY-box transcription factor 21) | 1 | 35 | active |
| SOX21 (SRY-box transcription factor 21) | 2 | 44.6 | active |
| SOX21 (SRY-box transcription factor 21) | 3 | 36.8 | active |
| YY1 (YY1 transcription factor) | 1 | 67.7 | active |
| YY1 (YY1 transcription factor) | 1 | 50.1 | active |
| YY1 (YY1 transcription factor) | 2 | 58.2 | active |
| YY1 (YY1 transcription factor) | 2 | 52.8 | active |
| YY1 (YY1 transcription factor) | 3 | 39.9 | active |
| YY1 (YY1 transcription factor) | 3 | 54.4 | active |
| NME1 (NME/NM23 nucleoside diphosphate kinase 1) | 1 | 51.4 | active |
| NME1 (NME/NM23 nucleoside diphosphate kinase 1) | 1 | 67.8 | active |
| NME1 (NME/NM23 nucleoside diphosphate kinase 1) | 2 | 64.7 | active |
| NME1 (NME/NM23 nucleoside diphosphate kinase 1) | 2 | 39.2 | active |
| NME1 (NME/NM23 nucleoside diphosphate kinase 1) | 3 | 61 | active |
| NME1 (NME/NM23 nucleoside diphosphate kinase 1) | 3 | 33.6 | active |
| TOP2A (DNA topoisomerase II alpha) | 1 | 57.3 | active |
| TOP2A (DNA topoisomerase II alpha) | 2 | 49 | active |
| TOP2A (DNA topoisomerase II alpha) | 3 | 45.5 | active |
| NAP1L4 (nucleosome assembly protein 1 like 4) | 1 | 43.2 | active |
| NAP1L4 (nucleosome assembly protein 1 like 4) | 2 | 55.7 | active |
| NAP1L4 (nucleosome assembly protein 1 like 4) | 3 | 37.8 | active |
| TADA2A (transcriptional adaptor 2A) | 1 | 86.6 | inactive |
| TADA2A (transcriptional adaptor 2A) | 2 | 65.4 | active |
| TADA2A (transcriptional adaptor 2A) | 3 | 65.9 | active |
| DPF3 (double PHD fingers 3) | 1 | 73.5 | active |
| DPF3 (double PHD fingers 3) | 2 | 51.8 | active |
| DPF3 (double PHD fingers 3) | 3 | 50.2 | active |
| TAF6L (TATA-box binding protein associated factor 6 like) | 1 | 66.6 | active |
| TAF6L (TATA-box binding protein associated factor 6 like) | 2 | 80.8 | inactive |
| TAF6L (TATA-box binding protein associated factor 6 like) | 3 | 50.8 | active |
| NEK3 (NIMA related kinase 3) | 1 | 52.1 | active |
| NEK3 (NIMA related kinase 3) | 2 | 55.3 | active |
| NEK3 (NIMA related kinase 3) | 3 | 49.7 | active |
